Record: PubChem BioAssay AID1224828 (NIAID, 2016)

- Test: 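Regulators linking TLR4 signalling to p65 nuclear translocation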 (primary screen)
- Cell system: mouse RAW264.7 G9 macrophage reporter cells (GFP-p65, Tnf promoter-mCherry)
- Reagents: siRNA pool against mouse genes, 100 nM
- Timing: 2 days siRNA transfection, then 40 min LPS before fixation
- Treatment: LPS (Salmonella minnesota R595) at 10 ng/ml
- Measurement: 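Microscopy ratio of nuclear to perinuclear-ring GFP-p65 signal, scaled to the plate median; gene score is the average of two replicate robust z-scores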
- Reading the numbers: p65 translocation robust z-score: higher = more nuclear NF-kappaB p65 after LPS than the plate median; nuclear/cytoplasmic p65 ratio: higher = more nuclear NF-kappaB p65
- Hit rule: 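Called active when z exceeds 3.3 or falls under -1.56 (median of Tlr4 controls), giving activity score of at least 50; no calls for control wells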
- Meaning of the calls: active = hit (p65 shift raised or lowered); inactive = no clear change
In all, the deposit lists about 17,000 reagents; this is an unselected part. 762 of them (4.5%) were called active. 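Active calls include both raised and lowered p65 entry, mostly lowered; wells with fewer than 50 cells lack a z-score.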 Raw values vary from plate to plate and are shown uncorrected.

gene knocked down	p65 translocation robust z-score	nuclear/cytoplasmic p65 ratio, rep 1	nuclear/cytoplasmic p65 ratio, rep 2	low cell count flag	call
Copz2	1.12	1.74	1.97	enough cells to score	inactive
Hykk	1.37	1.79	2.02	enough cells to score	inactive
Phox2a	-0.11	1.34	1.39	enough cells to score	inactive
Tmem125		1.23	1.15	fewer than 50 cells per well; well left out of scoring	inactive
Agtrap	-0.98	1.46	1.48	enough cells to score	inactive
Cox5b	0.61	1.71	1.84	enough cells to score	inactive
Or1j13	-0.18	1.49	1.48	enough cells to score	inactive
Arap3		1.31	1.37	fewer than 50 cells per well; well left out of scoring	inactive
Or6n2	0.27	1.48	1.08	enough cells to score	inactive
Slc25a41		1.17	1.21	fewer than 50 cells per well; well left out of scoring	inactive
Tesk1	-0.72	1.52	1.34	enough cells to score	inactive
Scamp4		1.58	1.53	fewer than 50 cells per well; well left out of scoring	inactive
Sugt1		1.34	1.14	fewer than 50 cells per well; well left out of scoring	inactive
Or6k4		1.26	1.29	fewer than 50 cells per well; well left out of scoring	inactive
Dhx37	0.04	1.55	1.58	enough cells to score	inactive
Gss	-0.77	1.35	1.25	enough cells to score	inactive
Klk1b27	1.74	1.27	1.67	enough cells to score	inactive
Cckar	-0.1	1.52	1.3	enough cells to score	inactive
Ros1	0.69	1.96	1.33	enough cells to score	inactive
Or5ak24	-2.06	1.16	1.08	enough cells to score	active
Rpl4		1.33	1.07	fewer than 50 cells per well; well left out of scoring	inactive
Or7g25		1.35	1.16	fewer than 50 cells per well; well left out of scoring	inactive
Rpl3		1.15	1.13	fewer than 50 cells per well; well left out of scoring	inactive
Gpr107	0.88	1.73	1.83	enough cells to score	inactive
Ferry3	0.05	1.57	1.56	enough cells to score	inactive
Zfp367	0.67	1.57	1.27	enough cells to score	inactive
Unc13a	1.94	1.86	2.13	enough cells to score	inactive
Ric8a	-0.95	1.49	1.51	enough cells to score	inactive
Slfn8		1.96	1.29	fewer than 50 cells per well; well left out of scoring	inactive

Active calls (from the list above):
gene knocked down	p65 translocation robust z-score	nuclear/cytoplasmic p65 ratio, rep 1	nuclear/cytoplasmic p65 ratio, rep 2	low cell count flag	call
Or5ak24	-2.06	1.16	1.08	enough cells to score	active

Continued:
gene knocked down	p65 translocation robust z-score	nuclear/cytoplasmic p65 ratio, rep 1	nuclear/cytoplasmic p65 ratio, rep 2	low cell count flag	call
Ctse	1.07	1.71	1.44	enough cells to score	inactive
Ren2		1.39	1.57	fewer than 50 cells per well; well left out of scoring	inactive
Kif13b	0.9	1.84	1.48	enough cells to score	inactive
Defb21		1.51	1.32	fewer than 50 cells per well; well left out of scoring	inactive
Or52a33	1.3	1.62	1.23	enough cells to score	inactive
1700092C17Rik	0.79	1.38	1.52	enough cells to score	inactive
Rbm39	1.23	1.5	1.35	enough cells to score	inactive
Fbxw17		1.35	1.13	fewer than 50 cells per well; well left out of scoring	inactive
Krt72	-0.18	1.55	1.68	enough cells to score	inactive
C130021I20Rik	0.26	1.49	1.53	enough cells to score	inactive
Ing3	-0.16	1.48	1.34	enough cells to score	inactive
Cyp4a12a	0.2	1.72	1.6	enough cells to score	inactive
Fxyd2	-0.68	1.31	1.31	enough cells to score	inactive
Slc66a1	-0.77	1.24	1.17	enough cells to score	inactive
Ccdc93		1.55	1.27	fewer than 50 cells per well; well left out of scoring	inactive
Rmnd5b	-0.99	1.31	1.4	enough cells to score	inactive
Depp1	-1.29	1.28	1.34	enough cells to score	inactive
Orai1		1.25	1.28	fewer than 50 cells per well; well left out of scoring	inactive
Krt85	1.78	1.41	1.67	enough cells to score	inactive
Cyp2s1	0.8	1.76	1.84	enough cells to score	inactive
Haglr	1.01	1.54	1.71	enough cells to score	inactive
Mipol1	0.88	1.65	1.37	enough cells to score	inactive
Epha1	1.02	1.73	1.61	enough cells to score	inactive
Cyb5r2	1.86	1.8	1.53	enough cells to score	inactive
Amotl2	-0.74	1.46	1.61	enough cells to score	inactive
Grtp1	-0.42	1.67	1.4	enough cells to score	inactive
Noxa1	1.23	1.96	1.66	enough cells to score	inactive
Map3k5	0.17	1.67	1.43	enough cells to score	inactive
Fads3	-2.08	1.24	1.22	enough cells to score	active
Vmn1r230	0.98	1.58	1.8	enough cells to score	inactive
